Consider 31 compounds from PubChem BioAssay AID248 (DTP/NCI, 2004).

Each structure is given as a SMILES string. The list shows only some results of the screen, not a fair sample: it is rich in T/C values a quarter to a half above the control, in often repeated tests (any T/C) and in doses without a T/C. Further doses and runs are listed elsewhere. T/C is the treated group as % of the vehicle group. Some entries give survivors of the animals treated and no T/C: the source holds a T/C of zero for them, seemingly a mark for toxic or unscored doses. Some survivor counts are full or nearly so, which does not show that the dose was tolerated: survival well below the control is almost never listed, so the zero probably covers shortened survival too. Counts of survivors are from the toxicity check (mostly the fifth day) where no day follows; animals may have died later. Schedule codes are those of the source, taken here to give the interval after Q, in days (D) or hours (H), and the number of doses after X. Some entries hold several experiments; the values are given in rising order. Some schedules carry Z or #; the key to these is not given. For survival time, this PubChem deposit counts one and a half times the control or more as active, and values a quarter to a half above the control carry no call in these data; other NCI protocols may use other cut-offs.

For this assay, the system named is L1210 leukemia ip in BDF1 mice, survival T/C. Kind of assay: NCI In Vivo Anticancer Drug Screen. Data for tumor model L1210 Leukemia (intraperitoneal) in B6D2F1 (BDF1) mice. The conditions noted are these: T/C endpoint: mean survival time, higher T/C = longer survival.
[1] abbreviates: dose: 200.0 mg/kg/injection, schedule: Q01DX009 (ip), vehicle: saline with Tween-80.
Where [2] appears, read: dose: 100.0 mg/kg/injection, schedule: Q01DX009 (ip), vehicle: saline with Tween-80.
[3] abbreviates: dose: 400.0 mg/kg/injection, schedule: Q04DX003 (ip), vehicle: saline.
Setting [4] is: dose: 400.0 mg/kg/injection, schedule: Q01DX001 (ip), vehicle: carboxymethylcellulose (CMC).
[5] abbreviates: dose: 200.0 mg/kg/injection, schedule: Q04DX003 (ip), vehicle: saline with Tween-80.
The mark [6] stands for this setting: dose: 400.0 mg/kg/injection, schedule: Q04DX003 (ip), vehicle: saline with Tween-80.
The mark [7] stands for this setting: dose: 100.0 mg/kg/injection, schedule: Q01DX001 (ip), vehicle: saline.
[8] abbreviates: dose: 200.0 mg/kg/injection, schedule: Q01DX001 (ip), vehicle: saline.
Setting [9] is: dose: 400.0 mg/kg/injection, schedule: Q01DX001 (ip), vehicle: saline.
The mark [10] stands for this setting: dose: 200.0 mg/kg/injection, schedule: Q04DX002 (ip), vehicle: Klucel (hydroxypropylcellulose) (HPC).

`ClP1(c2ccccc2)=NP(Cl)(c2ccccc2)=NP(Cl)(c2ccccc2)=NP(Cl)(c2ccccc2)=N1` (stereo not drawn): the survivor count under setting [1] is 3 of 6.
For the compound `Cc1nc(N)nc(N)c1Oc1ccc(Cl)cc1`, under “dose: 240.0 mg/kg/injection, schedule: Q01DX Z (ip), vehicle: saline”, the survivor count is 3 of 6.
Take `CN(N)C(=O)Nc1ccccc1Cl`: the survivor count (dose: 300.0 mg/kg/injection, schedule: Q01DX001 (ip), vehicle: carboxymethylcellulose (CMC)) is listed as 1 of 6.
As to `CN1CCC(=C(C#N)c2ccccc2)CC1`, the survivor count (dose: 100.0 mg/kg/injection, schedule: Q04DX003 (ip), vehicle: saline) is reported as 0 of 6.
With `N=C(N)c1cccc(NC(=O)Nc2cccc(C(=N)N)c2)c1`, the survivor count is on record as 0 of 6 (dose: 60.0 mg/kg/injection, schedule: Q01DX Z (ip), vehicle: saline) and 0 of 6 (dose: 120.0 mg/kg/injection, schedule: Q01DX Z (ip), vehicle: saline).
As for `c1cnc2c(c1)CCCC2`, the survivor count under setting [2] is 3 of 3.
Take `CC(C)CCOC(CN)C(Cl)(Cl)Cl` (stereo not drawn): under “dose: 100.0 mg/kg/injection, schedule: Q04DX002 (ip), vehicle: saline”, the T/C is recorded as 94, 101, 103, 106 % of control. For the same compound, the survivor count reads like this: (dose: 200.0 mg/kg/injection, schedule: Q04DX002 (ip), vehicle: saline) 3 of 6 and 2 of 3; (dose: 200.0 mg/kg/injection, schedule: Q04DX003 (ip), vehicle: saline) 0 of 6; (dose: 400.0 mg/kg/injection, schedule: Q04DX002 (ip), vehicle: saline) 0 of 3 and 1 of 6; under setting [3], 0 of 6.
Turning to `CC(C)(C)c1ccc(SC(=O)Nc2cc([N+](=O)[O-])ccc2Cl)cc1`, the survivor count reads like this: under setting [1], 6 of 6; (dose: 400.0 mg/kg/injection, schedule: Q01DX009 (ip), vehicle: saline with Tween-80) 2 of 6.
Turning to `CCCCCCCCCCCCCCCC[N+]1(Cc2ccccc2)CCOCC1`, for the setting “dose: 200.0 mg/kg/injection, schedule: Q01DX009 (ip), vehicle: Klucel (hydroxypropylcellulose) (HPC)”, the survivor count is 3 of 3.
As to `Br/C1=C/CCCCCC1`, the survivor count (dose: 300.0 mg/kg/injection, schedule: Q04DX003 (ip), vehicle: saline) is on record as 6 of 6.
As to `[C-]#[N+]CCCCCC`, the survivor count runs as follows: (dose: 8.43 mg/kg/injection, schedule: Q01DX009 (ip), vehicle: olive oil, sesame oil, peanut oil) 6 of 6; (dose: 16.87 mg/kg/injection, schedule: Q01DX009 (ip), vehicle: olive oil, sesame oil, peanut oil) 6 of 6; (dose: 33.75 mg/kg/injection, schedule: Q01DX009 (sc), vehicle: saline) 2 of 6; (dose: 67.5 mg/kg/injection, schedule: Q01DX009 (sc), vehicle: saline) 0 of 6; (dose: 135.0 mg/kg/injection, schedule: Q01DX009 (sc), vehicle: saline) 0 of 6; (dose: 200.0 mg/kg/injection, schedule: Q04DX003 (sc), vehicle: olive oil, sesame oil, peanut oil) 0 of 6. In addition, the survivor count (dose: 305.0 mg/kg/injection, schedule: Q04DX003 (sc), vehicle: olive oil, sesame oil, peanut oil) is recorded as 0 of 6.
Regarding `N=C(N)/C(N)=N\C1=NCCN1`, the T/C (dose: 400.0 mg/kg/injection, schedule: Q01DX009 (ip), vehicle: Klucel (hydroxypropylcellulose) (HPC)) was 145 % of control.
As for `C/C=C/CC1(CC)C(=O)NC(=S)NC1=O`, the survivor count (dose: 300.0 mg/kg/injection, schedule: Q01DX001 (ip), vehicle: saline) is given as 1 of 6.
Turning to `c1cnc(OCCN2CC2)nc1`, the survivor count by setting is: (dose: 100.0 mg/kg/injection, schedule: Q01DX001 (ip), vehicle: carboxymethylcellulose (CMC)) 4 of 6 and 5 of 6; (dose: 200.0 mg/kg/injection, schedule: Q01DX001 (ip), vehicle: carboxymethylcellulose (CMC)) 0 of 6; under setting [4], 0 of 6.
Take `O=P(N1CCCCCC1)(N1CC1)N1CC1`: the T/C (dose: 6.0 mg/kg/injection, schedule: Q01DX Z (ip), vehicle: saline) is 135 % of control.
With `O=C1OC(=O)C2C3C=CC(CC12)O3` (stereo not drawn), the survivor count (dose: 25.0 mg/kg/injection, schedule: Q01DX009 (ip), vehicle: saline with Tween-80) was 1 of 6; the survivor count (dose: 100.0 mg/kg/injection, schedule: Q04DX003 (ip), vehicle: saline with Tween-80) is on record as 1 of 6; the survivor count under setting [5] was 0 of 6; the survivor count under setting [6] is given as 1 of 6.
As to `COc1cc(/C=N/NC(=O)c2ccccc2Cl)ccc1O`, the survivor count under setting [2] is 3 of 3 and the survivor count under setting [1] was 3 of 3.
Consider `Cc1cc(C)c2cc3cccc[n+]3cc2c1`, for which the survivor count (dose: 8.0 mg/kg/injection, schedule: Q01DX015 (ip), vehicle: saline) is recorded as 4 of 6; the survivor count (dose: 16.0 mg/kg/injection, schedule: Q01DX015 (ip), vehicle: saline) is 0 of 6; the survivor count (dose: 32.0 mg/kg/injection, schedule: Q01DX001 (ip), vehicle: carboxymethylcellulose (CMC)) is listed as 3 of 6.
Regarding `CC(C)=CCC/C(C)=C\C=N\NC(N)=S`, the survivor count under setting [4] is 0 of 4.
As for `Cc1ccccc1[As](c1ccccc1C)c1ccccc1C`, the survivor count is 6 of 6 under setting [5] and 5 of 6 under setting [6].
As to `CC/C(C[n+]1ccccc1)=N\Nc1ccc([N+](=O)[O-])cc1[N+](=O)[O-]`, the survivor count runs as follows: (dose: 80.0 mg/kg/injection, schedule: Q04DX003 (ip), vehicle: saline) 5 of 6; under setting [7], 0 of 4; under setting [8], 0 of 4; under setting [9], 0 of 4.
Consider `CC(C)C12CCC(=O)C=C1CCCC2OC(=O)c1ccccc1C(=O)O` (stereo not drawn), for which, under setting [6], the survivor count was 0 of 6.
In the case of `Cc1c(C(=O)OCCCl)c(=O)n(-c2ccccc2)n1C`, the survivor count under setting [9] is listed as 2 of 4.
As to `O=C1/C(=C\c2ccccc2)Oc2cc(O)c(O)cc21`, the survivor count was 2 of 6 (dose: 200.0 mg/kg/injection, schedule: Q01DX001 (ip), vehicle: saline with Tween-80) and 0 of 6 (dose: 400.0 mg/kg/injection, schedule: Q01DX001 (ip), vehicle: saline with Tween-80).
In the case of `O=c1cc(C(F)(F)F)[nH]c2ccccc12`, the survivor count (dose: 100.0 mg/kg/injection, schedule: Q04DX002 (ip), vehicle: Klucel (hydroxypropylcellulose) (HPC)) was 0 of 3 and 3 of 3; the survivor count under setting [10] is reported as 0 of 3; the survivor count (dose: 400.0 mg/kg/injection, schedule: Q04DX002 (ip), vehicle: Klucel (hydroxypropylcellulose) (HPC)) was 0 of 3.
In the case of `O=C1C=CC2C3C=CC(CC3)C12` (stereo not drawn), the survivor count under setting [10] is listed as 1 of 3.
Take `COc1ccc(/C=N\NC(=O)N/N=C/c2ccc(OC)c(OC)c2)cc1OC`: the survivor count (dose: 200.0 mg/kg/injection, schedule: Q01DX001 (ip), vehicle: Klucel (hydroxypropylcellulose) (HPC)) is given as 6 of 6.
For the compound `COC(Cl)C(Cl)(Cl)Cl` (stereo not drawn), the survivor count under setting [3] is 2 of 6.
For `C(=N\Nc1nnc(N/N=C/C2CCCCC2)c2ccccc12)/C1CCCCC1`, the survivor count runs as follows: under setting [7], 2 of 4; under setting [8], 0 of 4; under setting [9], 0 of 4.
In the case of `Cc1ccc(N2C(N)=NC(N)=NC2(C)C)cc1`, the survivor count runs as follows: (dose: 50.0 mg/kg/injection, schedule: Q01DX001 (ip), vehicle: saline) 2 of 6; under setting [7], 1 of 6; under setting [8], 0 of 6; under setting [9], 0 of 6.
With `Cc1c(NC(=O)Nc2cccc(Cl)c2)nc(Br)c2ccccc12`, the survivor count (dose: 400.0 mg/kg/injection, schedule: Q04DX002 (ip), vehicle: saline with Tween-80) is given as 1 of 3.
